Substrate in this data set: C[S+](CC[C@H](N)C(=O)O)C[C@H]1O[C@@H](n2cnc3c(N)ncnc32)[C@H](O)[C@@H]1O
Nature of the data set: purified protein. The conditions noted are these: PLP cofactor, substrate not named beside the value, AdoMet by the enzyme's reaction, data not shown.

B1: ACS7 (AtACS7, 6His-SUMO-ACS7), non-phosphorylated (Arabidopsis thaliana) (protein)
chain: MGLPLMMERSSNNNNVELSRVAVSDTHGEDSPYFAGWKAYDENPYDESHNPSGVIQMGLAENQVSFDLLETYLEKKNPEGSMWGSKGAPGFRENALFQDYHGLKTFRQAMASFMEQIRGGKARFDPDRIVLTAGATAANELLTFILADPNDALLVPTPYYPGFDRDLRWRTGVKIVPIHCDSSNHFQITPEALESAYQTARDANIRVRGVLITNPSNPLGATVQKKVLEDLLDFCVRKNIHLVSDEIYSGSVFHASEFTSVAEIVENIDDVSVKERVHIVYSLSKDLGLPGFRVGTIYSYNDNVVRTARRMSSFTLVSSQTQHMLASMLSDEEFTEKYIRINRERLRRRYDTIVEGLKKAGIECLKGNAGLFCWMNLGFLLEKKTKDGELQLWDVILKELNLNISPGSSCHCSEVGWFRVCFANMSENTLEIALKRIHEFMDRRRRF
The Km is the substrate concentration at which the rate is half of its maximum. For B1, where the note is “non-phosphorylated enzyme”, the Michaelis constant (Km) worked out at 27.43 µM.

B2: phosphorylated ACS7 (AtACS7 phosphorylated by CDPK16) (Arabidopsis thaliana) (protein)
chain: B1 chain
Take B2: the Km (enzyme phosphorylated by CDPK16) stood at 13.65 µM.
